Experimental data: PubChem BioAssay AID1224826 (NIAID, 2016)
Screen: 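Regulators of Tlr4 signalling leading to Tnf-alpha expression in macrophages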 (primary screen). Cells: RAW264.7 G9 macrophages from mouse bearing reporters for p65 (GFP) and the Tnf promoter (mCherry). Knock-down reagent: siRNA pool against mouse genes, 100 nM. Timing: 16 h of LPS stimulation, after 2 days of siRNA transfection. Challenge: bacterial lipopolysaccharide (Salmonella minnesota R595), 10 ng/ml. Measurement: 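Nuclear mCherry signal of the Tnf promoter reporter measured by imaging after background removal, scaled to each plate median and turned into robust z-scores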. Scale: Tnf reporter robust z-score: higher = stronger Tnf promoter reporter signal after LPS. Rule for the call: 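a well counts as active at a score of -1.3 or below (Tlr4 knock-down control median) or above 3 (raised signal); controls and wells holding fewer than 50 cells are excluded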. Calls: active = Tnf reporter clearly lowered or raised; inactive = no clear change in Tnf reporter.
The deposit covers about 17,000 reagents; shown is an unselected part. Of all reagents, about 1,110 (6.6%) got an active call. 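Active means lowered or raised reporter signal; replicate intensities are raw and not normalised per plate.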 A number with no mark means an inactive call. Reagents against one gene are numbered here. Further read-outs or replicates are left out here.

gene | reagent no. | Tnf reporter robust z-score | fewer than 50 cells in well
Or1e32 | 1 | 3.5 (active) | enough cells in well
Oscar | 1 | 0.94 | enough cells in well
Timm13 | 1 | 3.25 (active) | enough cells in well
Mpzl1 | 1 | 0.48 | enough cells in well
Surf4 | 1 | 1.33 | enough cells in well
Tex18 | 1 | 0.3 | enough cells in well
Crygs | 1 | 0.65 | enough cells in well
Cux2 | 1 | -0.98 | enough cells in well
Dync1i2 | 1 | -0.89 | enough cells in well
Adgre5 | 1 | 0.65 | enough cells in well
Adgrl2 | 1 | 0.83 | enough cells in well
Nploc4 | 1 | 0.86 | enough cells in well
Dlk1 | 1 | -0.35 | enough cells in well
Gm4876 | 1 | -0.32 | enough cells in well

Sorted by “Tnf reporter robust z-score” (ascending): 3 of the entries above
gene | reagent no. | Tnf reporter robust z-score | fewer than 50 cells in well
Tex18 | 1 | 0.3 | enough cells in well
Crygs | 1 | 0.65 | enough cells in well
Surf4 | 1 | 1.33 | enough cells in well

Additional records:
gene | reagent no. | Tnf reporter robust z-score | fewer than 50 cells in well
Slurp1 | 1 | – | fewer than 50 cells per well; well left out of calls
Chtf8 | 1 | 0.61 | enough cells in well
Eefsec | 1 | 0.7 | enough cells in well
Or51ag1 | 1 | 1.98 | enough cells in well
Siae | 1 | 1.21 | enough cells in well
Rbbp5 | 1 | 0.92 | enough cells in well
Pde4c | 1 | 0.04 | enough cells in well
Ccdc88a | 1 | -0.37 | enough cells in well
Ccdc88a | 2 | 0.36 | enough cells in well
Prl7a2 | 1 | -0.06 | enough cells in well
